Assay results published in PubChem BioAssay AID1671190 (National Center for Advancing Translational Sciences (NCATS), 2021).
Several values for one entry are separate records, joined by “and”; a condition that tells them apart may be missing. Equal entries are not always repeated. Out of some 580,000 compounds screened, about 6,100 (1.1%) were called active. The inconclusive results got no clear call from the source; some entries with a clear call stand among them for comparison. Calls come from the whole dose curve; as a rule, active = well fitted inhibition curve with a large enough effect; inconclusive = small, poorly fitted or top-dose-only effect, or another doubt; inactive = no such curve, though single readings can be large or run the other way. Where the call is inconclusive, the potency comes from a doubtful curve fit.

Amino acid sequences for entries named in this document (tags omitted).
UniProt P18054, whole entry, looked up: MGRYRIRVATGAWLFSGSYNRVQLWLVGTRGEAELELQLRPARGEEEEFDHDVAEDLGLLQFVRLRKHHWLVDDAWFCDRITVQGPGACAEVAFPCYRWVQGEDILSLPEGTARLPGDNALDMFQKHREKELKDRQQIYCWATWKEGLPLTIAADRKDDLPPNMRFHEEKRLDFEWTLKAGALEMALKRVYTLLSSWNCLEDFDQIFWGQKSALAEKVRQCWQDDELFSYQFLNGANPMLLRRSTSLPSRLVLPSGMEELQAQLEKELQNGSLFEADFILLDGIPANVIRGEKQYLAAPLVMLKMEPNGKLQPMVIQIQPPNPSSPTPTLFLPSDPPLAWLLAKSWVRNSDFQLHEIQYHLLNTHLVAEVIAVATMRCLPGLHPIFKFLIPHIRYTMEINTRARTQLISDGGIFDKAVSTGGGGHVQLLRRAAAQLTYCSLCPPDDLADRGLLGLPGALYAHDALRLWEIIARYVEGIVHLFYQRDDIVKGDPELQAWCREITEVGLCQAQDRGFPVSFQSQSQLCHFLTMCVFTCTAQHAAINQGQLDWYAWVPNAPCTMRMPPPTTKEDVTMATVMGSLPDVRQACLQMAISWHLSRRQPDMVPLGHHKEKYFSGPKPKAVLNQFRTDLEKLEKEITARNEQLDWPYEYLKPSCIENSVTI

biological target: Polyunsaturated fatty acid lipoxygenase ALOX12 (Homo sapiens) (UniProt P18054); experiment: Primary qHTS assay for inhibitors of human arachidonate 12S-lipoxygenase (ALOX12): Round 2; details: purified 12hLO, xylenol orange hydroperoxide absorbance; activity change, negative = inhibition: at 108 µM (top of the series)
In short: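 Hydroperoxide product was detected by ferrous iron/xylenol orange as the 573 to 405 nm absorbance ratio. Arachidonic acid at 40 uM (final) was turned over for 30 min at room temperature by 150 nM human 12hLO, pH 7.0 Hepes buffer, after 15 min compound preincubation.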
% is set by controls: 0 for no effect and ±100 for the full control effect; potency is the fitted concentration of half-maximal effect.

SMILES	Potency	activity change, negative = inhibition
CCOc1ccc(CNCCc2ccccc2)cc1	inconclusive: 1.12 µM [inhibitor, full curve, poor fit]	–
CCCCCCC[n+]1ccc(-c2cc[n+](CCCCCCC)cc2)cc1	inconclusive: 39.8 µM [inhibitor, partial curve, poor fit] and inconclusive: 50.1 µM [inhibitor, partial curve, poor fit]	–
O=C1CS(=O)C2(CCNCC2)N1C1CCCC1 (stereo not given)	–	inactive: 9.14%
COc1cc(/C=C/[N+](=O)[O-])ccc1O	–	inactive: 349%
COc1ccccc1CNC(=O)C(Cl)(Cl)Cl	–	inactive: 5.93%
CNCc1cccnc1	inconclusive: 0.259 µM [inhibitor, full curve]	–
Oc1cc(Cl)cc(Cl)c1	–	inactive: -30.7%
CN1C(=O)NC(=O)/C(=C\C=C\c2ccccc2[N+](=O)[O-])C1=O	inconclusive: 50.1 µM [inhibitor, partial curve]	–
Cc1cc(C[N+](C)(C)C)oc1C	inconclusive: 3.55 µM [inhibitor, full curve, poor fit]	–
COc1cc(C(CN)CC(=O)O)ccc1O (stereo not given)	–	inactive: -27.6%
CCCCn1c(NC(=O)c2ccco2)c(C(=O)OCC)c2nc3ccccc3nc21	inconclusive: 6.31 µM [inhibitor, full curve]	–
c1ccc2cc(CNCCc3c[nH]c4ccccc34)ccc2c1	inconclusive: 44.7 µM [inhibitor, partial curve, poor fit]	–
CN(C)c1ccc([N+](=O)[O-])c([N+](=O)[O-])c1	inconclusive: 89.1 µM [inhibitor, partial curve, poor fit]	–
Cc1[nH]c2ccccc2c1CCNCc1ccco1	inconclusive: 1.12 µM [inhibitor, partial curve, poor fit]	–
O=C1NC(=O)C(=Cc2csc3ccccc23)C(=O)N1	active: 39.8 µM	–
CCOc1cccc(N2C(=O)/C(=C/c3ccco3)C(=O)NC2=S)c1	active: 11.2 µM	–
N[C@@H](Cc1ccc(N(CCCl)CCCl)cc1)C(=O)O	inconclusive: 79.4 µM [inhibitor, partial curve, poor fit] and inconclusive: 5.44 µM [inhibitor, full curve, poor fit]	–
CN1C(=O)C(=Cc2ccccc2OS(=O)(=O)c2ccccc2)C(=O)N(C)C1=O	inconclusive: 56.2 µM [inhibitor, partial curve, poor fit]	–
O=c1c2ccccc2nc(/C=C/c2ccccc2)n1-c1ccccc1F	–	inactive: -13.2%
COc1ccc(C(CNC(=O)Cc2ccc(Cl)c(Cl)c2)N2CCCCC2)cc1 (stereo not given)	inconclusive: 50.1 µM [inhibitor, partial curve, poor fit]	–

Molecules listed so far containing sulfur, in the order listed:
SMILES	Potency	activity change, negative = inhibition
O=C1CS(=O)C2(CCNCC2)N1C1CCCC1 (stereo not given)	–	inactive: 9.14%
O=C1NC(=O)C(=Cc2csc3ccccc23)C(=O)N1	active: 39.8 µM	–
CCOc1cccc(N2C(=O)/C(=C/c3ccco3)C(=O)NC2=S)c1	active: 11.2 µM	–
CN1C(=O)C(=Cc2ccccc2OS(=O)(=O)c2ccccc2)C(=O)N(C)C1=O	inconclusive: 56.2 µM [inhibitor, partial curve, poor fit]	–
